In US20250089559A1, “LIGHT-EMITTING DEVICE” (SEMICONDUCTOR ENERGY LABORATORY CO., LTD., priority 2022, published 2025):

Assay: acid dissociation constant pKa of basic skeletons / organic compounds

C1CN=C2NCCCN2C1 [TBD]
pKa: ≥ 14
acid dissociation constant pKa (measured by adopting water as a solvent): 14.5
